The assay has as its target T1, Wfs1-mCherry (wolframin fused to mCherry) (UniProt P56695).
T1 sequence: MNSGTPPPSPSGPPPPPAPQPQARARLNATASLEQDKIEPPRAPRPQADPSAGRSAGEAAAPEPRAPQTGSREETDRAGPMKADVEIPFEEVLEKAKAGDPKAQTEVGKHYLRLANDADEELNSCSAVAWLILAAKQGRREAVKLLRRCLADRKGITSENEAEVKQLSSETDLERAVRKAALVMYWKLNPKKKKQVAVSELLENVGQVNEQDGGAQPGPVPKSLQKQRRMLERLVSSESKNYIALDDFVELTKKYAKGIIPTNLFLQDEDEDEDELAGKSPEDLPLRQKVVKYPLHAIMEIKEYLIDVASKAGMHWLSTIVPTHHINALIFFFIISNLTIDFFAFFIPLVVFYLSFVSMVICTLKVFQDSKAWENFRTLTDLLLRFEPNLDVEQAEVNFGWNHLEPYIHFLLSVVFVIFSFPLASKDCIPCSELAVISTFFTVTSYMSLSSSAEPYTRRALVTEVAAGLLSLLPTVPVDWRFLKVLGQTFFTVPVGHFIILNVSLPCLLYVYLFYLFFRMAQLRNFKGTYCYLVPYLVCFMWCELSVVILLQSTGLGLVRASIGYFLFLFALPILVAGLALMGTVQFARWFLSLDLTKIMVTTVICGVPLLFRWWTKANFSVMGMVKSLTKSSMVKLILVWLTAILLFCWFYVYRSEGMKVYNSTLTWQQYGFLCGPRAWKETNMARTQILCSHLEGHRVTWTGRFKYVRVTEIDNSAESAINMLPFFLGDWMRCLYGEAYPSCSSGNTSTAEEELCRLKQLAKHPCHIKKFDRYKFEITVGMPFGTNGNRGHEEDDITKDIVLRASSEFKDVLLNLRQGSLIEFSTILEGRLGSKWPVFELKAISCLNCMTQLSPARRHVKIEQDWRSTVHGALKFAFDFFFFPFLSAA
In words: co-IP; HEK-293T cells transiently co-transfected with Wfs1-mCherry and Mct1-V5; lysis in IP buffer (20 mM Tris-HCl pH 7.5, 150 mM NaCl, 1 mM EDTA, 1 mM EGTA, 1% Triton X-100); anti-RFP immunoprecipitation overnight at 4 °C on Dynabeads Protein G, 8 washes; blot for RFP and V5; isotype antibody as negative control.

These are yes or no findings as the source states them, for the method shown. In cells and extracts the contact can be indirect. Some entries that bind do so weakly or less than the wild type. Sequences can lack the tags named with a protein.

B1: Mct1-V5 (monocarboxylate transporter isoform 1 with V5 tag) (protein, UniProt P53986 1-493)
chain: MPPAIGGPVGYTPPDGGWGWAVLVGAFISIGFSYAFPKSITVFFKEIEVIFSATTSEVSWISSIMLAVMYAGGPISSILVNKYGSRPVMIAGGCLSGCGLIAASFCNTVQELYLCIGVIGGLGLAFNLNPALTMIGKYFYKKRPLANGLAMAGSPVFLSTLAPLNQAFFDIFDWRGSFLILGGLLLNCCVAGSLMRPIGPEQVKLEKLKSKESLQEAGKSDANTDLIGGSPKGEKLSVFQTINKFLDLSLFTHRGFLLYLSGNVVMFFGLFTPLVFLSSYGKSKDFSSEKSAFLLSILAFVDMVARPSMGLAANTKWIRPRIQYFFAASVVANGVCHLLAPLSTTYVGFCVYAGVFGFAFGWLSSVLFETLMDLIGPQRFSSAVGLVTIVECCPVLLGPPLLGRLNDMYGDYKYTYWACGVILIIAGIYLFIGMGINYRLLAKEQKAEEKQKREGKEDEASTDVDEKPKETMKAAQSPQQHSSGDPTEEESPV
B1: the binding result was “binds”.

(Values after PMC9891717.)
